These are yes or no findings as the source states them, for the method shown. Some binding calls cover weakened binding; strength is not graded here.
Biological target: T1, asialo fetuin (UniProt P12763)
T1 sequence: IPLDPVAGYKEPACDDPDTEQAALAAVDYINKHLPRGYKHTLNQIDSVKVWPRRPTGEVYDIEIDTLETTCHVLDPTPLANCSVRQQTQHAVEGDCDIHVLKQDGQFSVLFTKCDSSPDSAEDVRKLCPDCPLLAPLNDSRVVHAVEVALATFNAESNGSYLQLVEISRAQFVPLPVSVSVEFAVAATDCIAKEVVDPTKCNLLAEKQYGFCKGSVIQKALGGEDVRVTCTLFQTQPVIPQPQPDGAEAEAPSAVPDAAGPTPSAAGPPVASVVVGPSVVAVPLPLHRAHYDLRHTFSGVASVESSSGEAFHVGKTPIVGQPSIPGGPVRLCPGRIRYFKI
Test: ELISA; asialo-fetuin coated at 20 µg/ml (carbonate buffer pH 9.6, overnight); 5 µg/ml galectin-3 in 1% BSA in PBS without or with compound inhibitors K2/L2, 1 h, room temperature; detected with anti-galectin-3 antibody; both purified

By UniProt entry, the sequences of proteins in these tests, tags left out.
UniProt P17931: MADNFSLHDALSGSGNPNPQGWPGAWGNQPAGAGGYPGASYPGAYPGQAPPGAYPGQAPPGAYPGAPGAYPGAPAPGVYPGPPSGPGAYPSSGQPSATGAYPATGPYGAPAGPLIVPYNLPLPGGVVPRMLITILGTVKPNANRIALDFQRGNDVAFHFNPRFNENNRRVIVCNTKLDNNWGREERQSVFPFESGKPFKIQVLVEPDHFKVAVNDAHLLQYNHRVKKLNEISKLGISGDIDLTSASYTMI

binding: binds
Substance: Human recombinant galectin-3 (from UniProt P17931 1-250)
